Test results from patent publication US6950754B2, “Apparatus and method for automated protein design” (The California Institute of Technology, priority 1997, dated 2005).
At least one peptide structure holds a part that was inferred or is arguable (an end, a ring closure or a residue). No end group written: not given here.

What was measured:
Format in all cases: physicochemical
[1] = Diffusion coefficient by water-sLED NMR; details: 25° C., pH 5.0
[2] = Sedimentation equilibrium; details: 100 μM
[3] = Proton NMR chemical shift dispersion (Example 4); details: pH 5.5, 25° C.
[4] = Amide hydrogen exchange kinetics by NMR; details: pH 5.5, 25° C., 20 hours of exchange

KPYTARIKGRTFSNEKELRDFLETFTGR [pda8d]
diffusion coefficient ([1]; 100 μM): 1.73×10^−7 cm^2/s | diffusion coefficient ([1]; 400 μM): 1.62×10^−7 cm^2/s | diffusion coefficient ([1]; 1.5 mM): 1.48×10^−7 cm^2/s | oligomeric state by sedimentation equilibrium ([2]; 7° C. and 25° C.): monomeric

MTWKYIINGKTLKGETTTEIVDAATFEKVWKQYLNDNGIDGEFTYDDATKTLTITE [α70]
chemical shift dispersion in the proton NMR spectrum [3]: almost no dispersion | protected (unexchanged) amide protons [4]: fully exchanged within the three minute dead time

QQYTAKIKGRTFRNEKELRDFIEKFKGR [FSD-1]
oligomeric state by equilibrium sedimentation ([2]; 500 μM and 1 mM): monomeric
